Experimental data published in paper PMC5505151, “A proteomic analysis of LRRK2 binding partners reveals interactions with multiple signaling components of the WNT/PCP pathway” (Molecular Neurodegeneration, 2017).

Sequences of proteins named here, by UniProt entry; tags and fusion partners are left off.
UniProt Q5S006: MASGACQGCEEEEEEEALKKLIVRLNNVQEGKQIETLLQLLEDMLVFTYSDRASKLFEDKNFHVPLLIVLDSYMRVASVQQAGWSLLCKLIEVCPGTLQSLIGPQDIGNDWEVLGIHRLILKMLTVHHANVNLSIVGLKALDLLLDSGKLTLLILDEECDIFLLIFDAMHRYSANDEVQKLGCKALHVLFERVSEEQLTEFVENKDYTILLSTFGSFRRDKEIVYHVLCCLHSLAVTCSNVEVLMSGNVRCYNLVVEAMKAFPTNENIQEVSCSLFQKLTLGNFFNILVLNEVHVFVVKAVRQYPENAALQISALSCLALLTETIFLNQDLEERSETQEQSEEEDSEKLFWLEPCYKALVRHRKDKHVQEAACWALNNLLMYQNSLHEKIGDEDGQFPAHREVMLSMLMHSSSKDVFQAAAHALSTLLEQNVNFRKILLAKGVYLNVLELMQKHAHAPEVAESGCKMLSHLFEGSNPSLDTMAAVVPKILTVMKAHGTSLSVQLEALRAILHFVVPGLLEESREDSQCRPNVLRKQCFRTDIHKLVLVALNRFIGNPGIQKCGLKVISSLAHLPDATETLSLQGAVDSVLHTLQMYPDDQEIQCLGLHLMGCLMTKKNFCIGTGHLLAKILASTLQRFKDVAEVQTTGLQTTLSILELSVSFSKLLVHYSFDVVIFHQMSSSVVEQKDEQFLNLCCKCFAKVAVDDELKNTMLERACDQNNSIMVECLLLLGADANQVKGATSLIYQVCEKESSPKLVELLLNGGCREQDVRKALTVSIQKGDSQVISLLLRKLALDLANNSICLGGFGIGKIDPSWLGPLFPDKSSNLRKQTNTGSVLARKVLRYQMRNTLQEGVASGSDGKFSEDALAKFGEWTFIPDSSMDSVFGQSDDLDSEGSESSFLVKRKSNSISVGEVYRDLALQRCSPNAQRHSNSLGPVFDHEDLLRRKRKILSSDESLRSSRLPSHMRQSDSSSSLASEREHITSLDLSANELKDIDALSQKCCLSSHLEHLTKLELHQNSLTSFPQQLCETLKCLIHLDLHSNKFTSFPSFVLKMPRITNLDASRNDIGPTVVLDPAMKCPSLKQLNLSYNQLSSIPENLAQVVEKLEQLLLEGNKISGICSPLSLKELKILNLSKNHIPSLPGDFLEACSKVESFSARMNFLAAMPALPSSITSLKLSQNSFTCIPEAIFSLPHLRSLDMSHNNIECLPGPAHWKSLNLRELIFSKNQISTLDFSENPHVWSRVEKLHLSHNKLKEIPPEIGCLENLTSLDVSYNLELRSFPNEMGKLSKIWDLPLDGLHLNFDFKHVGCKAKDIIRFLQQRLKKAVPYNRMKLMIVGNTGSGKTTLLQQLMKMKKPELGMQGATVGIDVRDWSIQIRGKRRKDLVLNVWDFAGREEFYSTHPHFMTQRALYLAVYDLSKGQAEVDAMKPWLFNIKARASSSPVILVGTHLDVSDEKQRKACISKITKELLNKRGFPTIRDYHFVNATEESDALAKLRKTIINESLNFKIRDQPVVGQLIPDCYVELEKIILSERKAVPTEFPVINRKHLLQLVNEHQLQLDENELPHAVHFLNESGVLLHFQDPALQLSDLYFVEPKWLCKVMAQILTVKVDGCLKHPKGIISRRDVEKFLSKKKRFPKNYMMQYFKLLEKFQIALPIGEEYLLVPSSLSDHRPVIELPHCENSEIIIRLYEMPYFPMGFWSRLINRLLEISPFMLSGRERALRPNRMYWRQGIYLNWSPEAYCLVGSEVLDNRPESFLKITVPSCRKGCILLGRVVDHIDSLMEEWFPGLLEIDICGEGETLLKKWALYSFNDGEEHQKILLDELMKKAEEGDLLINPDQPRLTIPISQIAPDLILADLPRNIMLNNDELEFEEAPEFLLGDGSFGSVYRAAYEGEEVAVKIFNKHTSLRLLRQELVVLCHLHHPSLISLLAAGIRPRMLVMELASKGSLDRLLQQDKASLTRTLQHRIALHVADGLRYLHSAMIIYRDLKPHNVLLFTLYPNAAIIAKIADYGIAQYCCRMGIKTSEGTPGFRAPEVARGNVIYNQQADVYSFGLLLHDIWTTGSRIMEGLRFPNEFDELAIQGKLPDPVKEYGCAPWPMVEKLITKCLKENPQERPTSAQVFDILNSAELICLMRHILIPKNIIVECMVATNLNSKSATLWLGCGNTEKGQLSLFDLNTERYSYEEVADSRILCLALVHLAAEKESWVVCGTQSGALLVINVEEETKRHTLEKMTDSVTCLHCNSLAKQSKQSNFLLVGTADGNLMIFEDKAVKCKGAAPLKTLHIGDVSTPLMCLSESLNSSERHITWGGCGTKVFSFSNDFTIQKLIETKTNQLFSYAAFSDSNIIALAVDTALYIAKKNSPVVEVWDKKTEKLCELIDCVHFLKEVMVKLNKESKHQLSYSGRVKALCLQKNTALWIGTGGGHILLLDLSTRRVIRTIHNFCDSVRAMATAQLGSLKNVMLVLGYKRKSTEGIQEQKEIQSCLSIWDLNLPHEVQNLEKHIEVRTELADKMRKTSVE
UniProt Q5S007: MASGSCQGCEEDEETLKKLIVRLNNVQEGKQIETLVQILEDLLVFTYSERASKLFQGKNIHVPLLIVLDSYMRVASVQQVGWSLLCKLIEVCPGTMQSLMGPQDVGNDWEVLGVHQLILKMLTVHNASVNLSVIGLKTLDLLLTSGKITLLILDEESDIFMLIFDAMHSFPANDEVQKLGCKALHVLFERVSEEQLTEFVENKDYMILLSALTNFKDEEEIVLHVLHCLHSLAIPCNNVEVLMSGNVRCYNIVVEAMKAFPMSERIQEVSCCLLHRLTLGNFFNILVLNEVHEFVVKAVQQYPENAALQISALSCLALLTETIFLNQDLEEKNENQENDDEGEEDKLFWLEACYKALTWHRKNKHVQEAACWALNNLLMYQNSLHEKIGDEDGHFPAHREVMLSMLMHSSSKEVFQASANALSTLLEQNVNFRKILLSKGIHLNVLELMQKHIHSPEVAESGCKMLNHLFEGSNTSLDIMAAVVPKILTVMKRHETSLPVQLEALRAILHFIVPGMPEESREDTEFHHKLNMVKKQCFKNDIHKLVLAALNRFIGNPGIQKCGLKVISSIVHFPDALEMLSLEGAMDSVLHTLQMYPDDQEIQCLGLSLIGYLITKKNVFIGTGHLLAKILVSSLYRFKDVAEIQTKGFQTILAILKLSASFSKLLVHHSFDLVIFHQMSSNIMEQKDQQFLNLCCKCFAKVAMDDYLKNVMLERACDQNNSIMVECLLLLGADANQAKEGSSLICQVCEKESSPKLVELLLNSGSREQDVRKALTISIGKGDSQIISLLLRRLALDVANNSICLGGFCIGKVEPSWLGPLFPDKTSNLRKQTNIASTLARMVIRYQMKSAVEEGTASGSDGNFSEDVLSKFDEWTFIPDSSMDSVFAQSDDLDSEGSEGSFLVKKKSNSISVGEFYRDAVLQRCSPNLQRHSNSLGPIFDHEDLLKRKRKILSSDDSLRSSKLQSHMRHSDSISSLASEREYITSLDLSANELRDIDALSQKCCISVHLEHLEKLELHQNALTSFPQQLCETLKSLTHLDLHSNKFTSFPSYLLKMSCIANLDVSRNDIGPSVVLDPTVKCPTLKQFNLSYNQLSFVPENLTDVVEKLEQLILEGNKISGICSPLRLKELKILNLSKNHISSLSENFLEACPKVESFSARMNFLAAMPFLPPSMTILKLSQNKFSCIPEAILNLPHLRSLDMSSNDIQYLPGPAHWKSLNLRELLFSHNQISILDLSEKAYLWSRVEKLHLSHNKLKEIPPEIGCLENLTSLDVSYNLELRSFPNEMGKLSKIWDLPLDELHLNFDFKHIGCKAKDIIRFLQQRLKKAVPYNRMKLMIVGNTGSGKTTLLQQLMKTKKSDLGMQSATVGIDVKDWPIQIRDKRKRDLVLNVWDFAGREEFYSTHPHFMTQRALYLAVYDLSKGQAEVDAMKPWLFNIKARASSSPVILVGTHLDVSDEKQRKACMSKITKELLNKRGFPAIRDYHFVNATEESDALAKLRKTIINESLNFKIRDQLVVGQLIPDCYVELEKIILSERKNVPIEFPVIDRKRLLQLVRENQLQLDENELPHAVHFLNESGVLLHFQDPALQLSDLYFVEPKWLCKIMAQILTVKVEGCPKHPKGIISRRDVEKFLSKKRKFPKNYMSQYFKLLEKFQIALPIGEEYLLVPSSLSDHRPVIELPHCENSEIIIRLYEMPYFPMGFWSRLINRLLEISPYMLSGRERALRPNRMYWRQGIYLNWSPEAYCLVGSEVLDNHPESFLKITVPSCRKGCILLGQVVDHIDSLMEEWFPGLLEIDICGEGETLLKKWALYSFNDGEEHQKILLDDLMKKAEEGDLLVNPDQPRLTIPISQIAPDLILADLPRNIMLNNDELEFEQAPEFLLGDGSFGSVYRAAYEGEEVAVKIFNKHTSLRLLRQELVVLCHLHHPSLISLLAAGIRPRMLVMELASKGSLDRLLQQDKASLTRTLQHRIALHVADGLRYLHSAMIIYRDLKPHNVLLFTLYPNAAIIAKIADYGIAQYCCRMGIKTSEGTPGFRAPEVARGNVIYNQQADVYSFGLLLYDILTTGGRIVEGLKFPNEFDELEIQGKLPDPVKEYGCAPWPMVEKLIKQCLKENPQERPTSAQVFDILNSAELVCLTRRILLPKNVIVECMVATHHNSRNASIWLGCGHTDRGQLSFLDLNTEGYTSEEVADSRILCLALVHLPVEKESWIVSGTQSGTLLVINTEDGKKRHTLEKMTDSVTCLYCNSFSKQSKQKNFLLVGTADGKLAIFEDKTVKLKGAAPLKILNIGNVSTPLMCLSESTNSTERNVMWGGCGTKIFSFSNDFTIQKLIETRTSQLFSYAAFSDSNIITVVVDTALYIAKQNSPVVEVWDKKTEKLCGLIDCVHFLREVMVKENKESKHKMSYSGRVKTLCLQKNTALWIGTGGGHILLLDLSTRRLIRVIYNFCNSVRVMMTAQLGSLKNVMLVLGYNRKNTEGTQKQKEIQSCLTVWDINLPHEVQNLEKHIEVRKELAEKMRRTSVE
UniProt Q58FF8: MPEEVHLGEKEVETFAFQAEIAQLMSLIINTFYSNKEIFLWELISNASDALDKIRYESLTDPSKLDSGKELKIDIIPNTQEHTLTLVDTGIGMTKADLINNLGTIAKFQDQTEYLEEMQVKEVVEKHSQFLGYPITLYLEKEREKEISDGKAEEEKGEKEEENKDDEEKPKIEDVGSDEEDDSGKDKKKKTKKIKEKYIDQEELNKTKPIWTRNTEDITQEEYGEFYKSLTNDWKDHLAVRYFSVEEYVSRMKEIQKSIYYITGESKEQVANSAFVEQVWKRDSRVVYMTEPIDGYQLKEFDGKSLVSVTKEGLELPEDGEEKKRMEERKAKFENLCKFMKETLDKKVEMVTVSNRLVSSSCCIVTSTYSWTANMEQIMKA
UniProt Q9Z0G0: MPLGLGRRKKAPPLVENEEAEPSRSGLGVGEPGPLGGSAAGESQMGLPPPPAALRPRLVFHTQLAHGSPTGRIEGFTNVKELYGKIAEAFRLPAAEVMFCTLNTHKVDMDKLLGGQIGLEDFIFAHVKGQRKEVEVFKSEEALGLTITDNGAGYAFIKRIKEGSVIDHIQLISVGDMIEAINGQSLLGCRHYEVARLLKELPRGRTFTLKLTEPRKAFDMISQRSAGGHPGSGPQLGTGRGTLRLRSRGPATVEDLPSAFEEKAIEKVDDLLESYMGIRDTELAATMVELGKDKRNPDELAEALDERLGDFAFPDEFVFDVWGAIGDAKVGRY
UniProt P10244: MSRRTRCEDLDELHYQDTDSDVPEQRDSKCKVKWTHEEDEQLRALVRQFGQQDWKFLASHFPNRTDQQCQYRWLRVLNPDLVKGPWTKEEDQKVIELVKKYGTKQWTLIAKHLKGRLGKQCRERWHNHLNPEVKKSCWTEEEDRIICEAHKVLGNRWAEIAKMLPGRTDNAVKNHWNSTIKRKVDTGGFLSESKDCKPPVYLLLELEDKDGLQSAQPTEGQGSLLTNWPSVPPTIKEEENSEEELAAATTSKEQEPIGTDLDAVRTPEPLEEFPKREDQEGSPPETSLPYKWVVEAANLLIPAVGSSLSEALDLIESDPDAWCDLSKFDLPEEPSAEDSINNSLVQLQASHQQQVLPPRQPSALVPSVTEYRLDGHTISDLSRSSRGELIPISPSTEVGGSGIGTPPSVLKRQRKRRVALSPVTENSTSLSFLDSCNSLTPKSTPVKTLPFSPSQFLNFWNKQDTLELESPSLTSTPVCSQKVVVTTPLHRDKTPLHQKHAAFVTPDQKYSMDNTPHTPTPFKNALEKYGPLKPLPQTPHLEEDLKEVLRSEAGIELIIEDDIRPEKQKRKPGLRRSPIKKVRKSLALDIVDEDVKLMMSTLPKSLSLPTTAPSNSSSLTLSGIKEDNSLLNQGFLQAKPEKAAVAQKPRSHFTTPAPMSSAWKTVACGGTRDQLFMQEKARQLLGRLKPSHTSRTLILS

Tests used:
[1] = target: endogenous LRRK2 (Leucine-rich repeat kinase 2) (mouse (endogenous in SN4741 and in mouse ventral midbrain)) (UniProt Q5S006); experiment: affinity purification with mass spectrometry; SN4741 cells, endogenous LRRK2 immunoprecipitated; NP40 buffer, SDS-PAGE, Coomassie staining, in-gel tryptic digestion, LC-MS/MS; only proteins absent in the IgG control counted
[2] = target: endogenous LRRK2 (Leucine-rich repeat kinase 2) (mouse (endogenous in SN4741 and in mouse ventral midbrain)) (UniProt Q5S006); experiment: affinity purification with mass spectrometry; SN4741 cells, endogenous LRRK2 immunoprecipitated; buffer with 0.1% sodium deoxycholate, tryptic digestion directly on beads, LC-MS/MS; only proteins absent in the IgG control counted
[3] = target: 2xmyc-Lrrk2-WT (Leucine-rich repeat kinase 2, wild type) (human) (UniProt Q5S007); experiment: affinity purification with mass spectrometry; HEK293T transiently transfected with human 2xmyc-Lrrk2-WT, lysed in NP40 buffer 24 h post transfection; pull-down with antibodies against C-MYC; SDS-PAGE, silver staining, in-gel tryptic digestion, LC-MS/MS; only proteins absent in the IgG control counted
[4] = target: 2xmyc-Lrrk2-WT (Leucine-rich repeat kinase 2, wild type) (human) (UniProt Q5S007); experiment: as above; remark: listed apart in the source

Molecule: Putative heat shock protein HSP 90-beta 2 (from UniProt Q58FF8 1-381)
binding [3]: binds

Molecule: Centromere protein F (from UniProt P49454 1-3114)
binding [3]: binds

Molecule: Tubulin beta-4A chain (from UniProt P04350 1-444)
binding [3]: binds

Molecule: SHROOM-3 (endogenous, HEK293T) (from UniProt Q8TF72 1-1996)
binding [3]: binds

Molecule: Telomere-associated protein RIF1 (from UniProt Q5UIP0 1-2472)
binding [3]: binds

B1: C-Jun-amino-terminal kinase-interacting protein 4 (protein, UniProt O60271 1-1321)
chain: MELEDGVVYQEEPGGSGAVMSERVSGLAGSIYREFERLIGRYDEEVVKELMPLVVAVLENLDSVFAQDQEHQVELELLRDDNEQLITQYEREKALRKHAEEKFIEFEDSQEQEKKDLQTRVESLESQTRQLELKAKNYADQISRLEEREAELKKEYNALHQRHTEMIHNYMEHLERTKLHQLSGSDQLESTAHSRIRKERPISLGIFPLPAGDGLLTPDAQKGGETPGSEQWKFQELSQPRSHTSLKVSNSPEPQKAVEQEDELSDVSQGGSKATTPASTANSDVATIPTDTPLKEENEGFVKVTDAPNKSEISKHIEVQVAQETRNVSTGSAENEEKSEVQAIIESTPELDMDKDLSGYKGSSTPTKGIENKAFDRNTESLFEELSSAGSGLIGDVDEGADLLGMGREVENLILENTQLLETKNALNIVKNDLIAKVDELTCEKDVLQGELEAVKQAKLKLEEKNRELEEELRKARAEAEDARQKAKDDDDSDIPTAQRKRFTRVEMARVLMERNQYKERLMELQEAVRWTEMIRASRENPAMQEKKRSSIWQFFSRLFSSSSNTTKKPEPPVNLKYNAPTSHVTPSVKKRSSTLSQLPGDKSKAFDFLSEETEASLASRREQKREQYRQVKAHVQKEDGRVQAFGWSLPQKYKQVTNGQGENKMKNLPVPVYLRPLDEKDTSMKLWCAVGVNLSGGKTRDGGSVVGASVFYKDVAGLDTEGSKQRSASQSSLDKLDQELKEQQKELKNQEELSSLVWICTSTHSATKVLIIDAVQPGNILDSFTVCNSHVLCIASVPGARETDYPAGEDLSESGQVDKASLCGSMTSNSSAETDSLLGGITVVGCSAEGVTGAATSPSTNGASPVMDKPPEMEAENSEVDENVPTAEEATEATEGNAGSAEDTVDISQTGVYTEHVFTDPLGVQIPEDLSPVYQSSNDSDAYKDQISVLPNEQDLVREEAQKMSSLLPTMWLGAQNGCLYVHSSVAQWRKCLHSIKLKDSILSIVHVKGIVLVALADGTLAIFHRGVDGQWDLSNYHLLDLGRPHHSIRCMTVVHDKVWCGYRNKIYVVQPKAMKIEKSFDAHPRKESQVRQLAWVGDGVWVSIRLDSTLRLYHAHTYQHLQDVDIEPYVSKMLGTGKLGFSFVRITALMVSCNRLWVGTGNGVIISIPLTETNKTSGVPGNRPGSVIRVYGDENSDKVTPGTFIPYCSMAHAQLCFHGHRDAVKFFVAVPGQVISPQSSSSGTDLTGDKAGPSAQEPGSQTPLKSMLVISGGEGYIDFRMGDEGGESELLGEDLPLEPSVTKAERSHLIVWQVMYGNE
binding [4]: binds

Now from value to molecule:

binding [1]: binds
binding [2]: binds
Molecule: PDZ domain-containing protein GIPC1 (endogenous, mouse) (from UniProt Q9Z0G0 1-333)

binding [3]: binds
Molecule: Myb-related protein B (from UniProt P10244 1-700)

binding [4]: binds
B2: FLOTILLIN-2 (endogenous, HEK293T) (protein, UniProt Q14254 1-428)
chain: MGNCHTVGPNEALVVSGGCCGSDYKQYVFGGWAWAWWCISDTQRISLEIMTLQPRCEDVETAEGVALTVTGVAQVKIMTEKELLAVACEQFLGKNVQDIKNVVLQTLEGHLRSILGTLTVEQIYQDRDQFAKLVREVAAPDVGRMGIEILSFTIKDVYDKVDYLSSLGKTQTAVVQRDADIGVAEAERDAGIREAECKKEMLDVKFMADTKIADSKRAFELQKSAFSEEVNIKTAEAQLAYELQGAREQQKIRQEEIEIEVVQRKKQIAVEAQEILRTDKELIATVRRPAEAEAHRIQQIAEGEKVKQVLLAQAEAEKIRKIGEAEAAVIEAMGKAEAERMKLKAEAYQKYGDAAKMALVLEALPQIAAKIAAPLTKVDEIVVLSGDNSKVTSEVNRLLAELPASVHALTGVDLSKIPLIKKATGVQV

binding [4]: binds
B3: PDZ domain-containing protein GIPC1 (endogenous, HEK293T) (protein, UniProt O14908 1-333)
chain: MPLGLGRRKKAPPLVENEEAEPGRGGLGVGEPGPLGGGGSGGPQMGLPPPPPALRPRLVFHTQLAHGSPTGRIEGFTNVKELYGKIAEAFRLPTAEVMFCTLNTHKVDMDKLLGGQIGLEDFIFAHVKGQRKEVEVFKSEDALGLTITDNGAGYAFIKRIKEGSVIDHIHLISVGDMIEAINGQSLLGCRHYEVARLLKELPRGRTFTLKLTEPRKAFDMISQRSAGGRPGSGPQLGTGRGTLRLRSRGPATVEDLPSAFEEKAIEKVDDLLESYMGIRDTELAATMVELGKDKRNPDELAEALDERLGDFAFPDEFVFDVWGAIGDAKVGRY

binding [4]: binds
B4: BEN domain-containing protein 3 (endogenous, HEK293T) (protein, UniProt Q5T5X7 1-828)
chain: MNSTEFTEDVEEVLKSITVKVETEAEDAALDCSVNSRTSEKHSVDSVLTALQDSSKRKQLVSDGLLDSVPGVKRRRLIPEALLAGMRNRENSSPCQGNGEQAGRGRSLGNVWPGEEEPCNDATTPSYKKPLYGISHKIMEKKNPPSGDLLNVYELFEKANASNSPSSLRLLNEPQKRDCGSTGAGTDNDPNIYFLIQKMFYMLNTLTSNMSQLHSKVDLLSLEVSRIKKQVSPTEMVAKFQPPPEYQLTAAELKQIVDQSLSGGDLACRLLVQLFPELFSDVDFSRGCSACGFAAKRKLESLHLQLIRNYVEVYYPSVKDTAVWQAECLPQLNDFFSRFWAQREMEDSQPSGQVASFFEAEQVDPGHFLDNKDQEEALSLDRSSTIASDHVVDTQDLTEFLDEASSPGEFAVFLLHRLFPELFDHRKLGEQYSCYGDGGKQELDPQRLQIIRNYTEIYFPDMQEEEAWLQQCAQRINDELEGLGLDAGSEGDPPRDDCYDSSSLPDDISVVKVEDSFEGERPGRRSKKIWLVPIDFDKLEIPQPDFEVPGADCLLSKEQLRSIYESSLSIGNFASRLLVHLFPELFTHENLRKQYNCSGSLGKKQLDPSRIKLIRHYVQLLYPRAKNDRVWTLEFVGKLDERCRRRDTEQRRSYQQQRKVHVPGPECRDLTSYAINPERFREEFEGPPLPPERSSKDFCKIPLDELVVPSPDFPVPSPYLLSDKEVREIVQQSLSVGNFAARLLVRLFPELFTAENLRLQYNHSGACNKKQLDPTRLRLIRHYVEAVYPVEKMEEVWHYECIPSIDERCRRPNRKKCDILKKAKKVEK

binding [4]: binds
B5: C-Jun-amino-terminal kinase-interacting protein 3 (endogenous, HEK293T) (protein, UniProt Q9UPT6 1-1336)
chain: MMEIQMDEGGGVVVYQDDYCSGSVMSERVSGLAGSIYREFERLIHCYDEEVVKELMPLVVNVLENLDSVLSENQEHEVELELLREDNEQLLTQYEREKALRRQAEEKFIEFEDALEQEKKELQIQVEHYEFQTRQLELKAKNYADQISRLEERESEMKKEYNALHQRHTEMIQTYVEHIERSKMQQVGGNSQTESSLPGRRKERPTSLNVFPLADGTVRAQIGGKLVPAGDHWHLSDLGQLQSSSSYQCPQDEMSESGQSSAAATPSTTGTKSNTPTSSVPSAAVTPLNESLQPLGDYGVGSKNSKRAREKRDSRNMEVQVTQEMRNVSIGMGSSDEWSDVQDIIDSTPELDMCPETRLDRTGSSPTQGIVNKAFGINTDSLYHELSTAGSEVIGDVDEGADLLGEFSVRDDFFGMGKEVGNLLLENSQLLETKNALNVVKNDLIAKVDQLSGEQEVLRGELEAAKQAKVKLENRIKELEEELKRVKSEAIIARREPKEEAEDVSSYLCTESDKIPMAQRRRFTRVEMARVLMERNQYKERLMELQEAVRWTEMIRASREHPSVQEKKKSTIWQFFSRLFSSSSSPPPAKRPYPSVNIHYKSPTTAGFSQRRNHAMCPISAGSRPLEFFPDDDCTSSARREQKREQYRQVREHVRNDDGRLQACGWSLPAKYKQLSPNGGQEDTRMKNVPVPVYCRPLVEKDPTMKLWCAAGVNLSGWRPNEDDAGNGVKPAPGRDPLTCDREGDGEPKSAHTSPEKKKAKELPEMDATSSRVWILTSTLTTSKVVIIDANQPGTVVDQFTVCNAHVLCISSIPAASDSDYPPGEMFLDSDVNPEDPGADGVLAGITLVGCATRCNVPRSNCSSRGDTPVLDKGQGEVATIANGKVNPSQSTEEATEATEVPDPGPSEPETATLRPGPLTEHVFTDPAPTPSSGPQPGSENGPEPDSSSTRPEPEPSGDPTGAGSSAAPTMWLGAQNGWLYVHSAVANWKKCLHSIKLKDSVLSLVHVKGRVLVALADGTLAIFHRGEDGQWDLSNYHLMDLGHPHHSIRCMAVVYDRVWCGYKNKVHVIQPKTMQIEKSFDAHPRRESQVRQLAWIGDGVWVSIRLDSTLRLYHAHTHQHLQDVDIEPYVSKMLGTGKLGFSFVRITALLVAGSRLWVGTGNGVVISIPLTETVVLHRGQLLGLRANKTSPTSGEGARPGGIIHVYGDDSSDRAASSFIPYCSMAQAQLCFHGHRDAVKFFVSVPGNVLATLNGSVLDSPAEGPGPAAPASEVEGQKLRNVLVLSGGEGYIDFRIGDGEDDETEEGAGDMSQVKPVLSKAERSHIIVWQVSYTPE

binding [4]: binds
B6: FLOTILLIN-1 (endogenous, HEK293T) (protein, UniProt O75955 1-427)
chain: MFFTCGPNEAMVVSGFCRSPPVMVAGGRVFVLPCIQQIQRISLNTLTLNVKSEKVYTRHGVPISVTGIAQVKIQGQNKEMLAAACQMFLGKTEAEIAHIALETLEGHQRAIMAHMTVEEIYKDRQKFSEQVFKVASSDLVNMGISVVSYTLKDIHDDQDYLHSLGKARTAQVQKDARIGEAEAKRDAGIREAKAKQEKVSAQYLSEIEMAKAQRDYELKKAAYDIEVNTRRAQADLAYQLQVAKTKQQIEEQRVQVQVVERAQQVAVQEQEIARREKELEARVRKPAEAERYKLERLAEAEKSQLIMQAEAEAASVRMRGEAEAFAIGARARAEAEQMAKKAEAFQLYQEAAQLDMLLEKLPQVAEEISGPLTSANKITLVSSGSGTMGAAKVTGEVLDILTRLPESVERLTGVSISQVNHKPLRTA

Where two headings read alike, the source gives them in different places. These are yes or no findings as the source states them, for the method shown. Binding seen in cells or lysates may run through a third protein. Here binding means that the protein was enriched with, or labelled near, the bait; the list need not be complete. One block for each molecule: values may come before it.
